{"sequences": {"note": "Sequences of proteins named here, by UniProt entry; tags and fusion partners are left off.", "UniProt P20339, whole entry": "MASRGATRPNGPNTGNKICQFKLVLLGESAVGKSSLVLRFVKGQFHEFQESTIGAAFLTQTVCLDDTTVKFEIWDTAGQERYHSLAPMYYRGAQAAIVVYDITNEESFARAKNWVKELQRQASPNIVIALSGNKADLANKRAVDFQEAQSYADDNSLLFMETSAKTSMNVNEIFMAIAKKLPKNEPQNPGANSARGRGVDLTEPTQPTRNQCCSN"}, "source": "paper doi:10.1101/2021.06.20.449167", "about": "(bioRxiv, 2021)", "binders": {"B1": {"name": "Fy-2 (Ppp1r21), untagged subunit of the reconstituted FERRY complex (natural protein, human, UniProt Q6ZMI0 1-780, looked up)", "chain": "MASAELQGKYQKLAQEYSKLRAQNQVLKKGVVDEQANSAALKEQLKMKDQSLRKLQQEMDSLTFRNLQLAKRVELLQDELALSEPRGKKNKKSGESSSQLSQEQKSVFDEDLQKKIEENERLHIQFFEADEQHKHVEAELRSRLATLETEAAQHQAVVDGLTRKYMETIEKLQNDKAKLEVKSQTLEKEAKECRLRTEECQLQLKTLHEDLSGRLEESLSIINEKVPFNDTKYSQYNALNVPLHNRRHQLKMRDIAGQALAFVQDLVTALLNFHTYTEQRIQIFPVDSAIDTISPLNQKFSQYLHENASYVRPLEEGMLHLFESITEDTVTVLETTVKLKTFSEHLTSYICFLRKILPYQLKSLEEECESSLCTSALRARNLELSQDMKKMTAVFEKLQTYIALLALPSTEPDGLLRTNYSSVLTNVGAALHGFHDVMKDISKHYSQKAAIEHELPTATQKLITTNDCILSSVVALTNGAGKIASFFSNNLDYFIASLSYGPKAASGFISPLSAECMLQYKKKAAAYMKSLRKPLLESVPYEEALANRRILLSSTESREGLAQQVQQSLEKISKLEQEKEHWMLEAQLAKIKLEKENQRIADKLKNTGSAQLVGLAQENAAVSNTAGQDEATAKAVLEPIQSTSLIGTLTRTSDSEVPDVESREDLIKNHYMARIVELTSQLQLADSKSVHFYAECRALSKRLALAEKSKEALTEEMKLASQNISRLQDELTTTKRSYEDQLSMMSDHLCSMNETLSKQREEIDTLKMSSKGNSKKNKSR"}, "B2": {"name": "Fy-3 (C12orf4), untagged subunit of the recombinant FERRY and GST-FERRY complexes (natural protein, human, UniProt Q9NQ89 1-552, looked up)", "chain": "MKKNRERFCNREREFVYKFKVGSQCLELRVPLKFPVQENASHLHGRLMLLHSLPCFIEKDLKEALTQFIEEESLSDYDRDAEASLAAVKSGEVDLHQLASTWAKAYAETTLEHARPEEPSWDEDFADVYHDLIHSPASETLLNLEHNYFVSISELIGERDVELKKLRERQGIEMEKVMQELGKSLTDQDVNSLAAQHFESQQDLENKWSNELKQSTAIQKQEYQEWVIKLHQDLKNPNNSSLSEEIKVQPSQFRESVEAIGRIYEEQRKLEESFTIHLGAQLKTMHNLRLLRADMLDFCKHKRNHRSGVKLHRLQTALSLYSTSLCGLVLLVDNRINSYSGIKRDFATVCQECTDFHFPRIEEQLEVVQQVVLYARTQRRSKLKESLDSGNQNGGNDDKTKNAERNYLNVLPGEFYITRHSNLSEIHVAFHLCVDDHVKSGNITARDPAIMGLRNILKVCCTHDITTISIPLLLVHDMSEEMTIPWCLRRAELVFKCVKGFMMEMASWDGGISRTVQFLVPQSISEEMFYQLSNMLPQIFRVSSTLTLTSKH"}, "B3": {"name": "Fy-2 (Ppp1r21), in vitro translated (protein, UniProt Q6ZMI0 1-780)", "chain": "B1 chain", "modifications": "[35S]-methionine-labelled"}, "B4": {"name": "His6-Fy-4 (Cryzl1) (natural protein, human, UniProt O95825 1-349, looked up)", "chain": "MKGLYFQQSSTDEEITFVFQEKEDLPVTEDNFVKLQVKACALSQINTKLLAEMKMKKDLFPVGREIAGIVLDVGSKVSFFQPDDEVVGILPLDSEDPGLCEVVRVHEHYLVHKPEKVTWTEAAGSIRDGVRAYTALHYLSHLSPGKSVLIMDGASAFGTIAIQLAHHRGAKVISTACSLEDKQCLERFRPPIARVIDVSNGKVHVAESCLEETGGLGVDIVLDAGVRLYSKDDEPAVKLQLLPHKHDIITLLGVGGHWVTTEENLQLDPPDSHCLFLKGATLAFLNDEVWNLSNVQQGKYLCILKDVMEKLSTGVFRPQLDEPIPLYEAKVSMEAVQKNQGRKKQVVQF"}, "B5": {"name": "Fy-3 (C12orf4), in vitro translated (protein, UniProt Q9NQ89 1-552)", "chain": "B2 chain", "modifications": "[35S]-methionine-labelled"}, "B6": {"name": "Fy-4 (Cryzl1), in vitro translated (protein, UniProt O95825 1-349)", "chain": "B4 chain", "modifications": "[35S]-methionine-labelled"}, "B7": {"name": "Fy-5 (Gatd1), in vitro translated (protein, UniProt Q8NB37 1-220)", "chain": "MASERLPNRPACLLVASGAAEGVSAQSFLHCFTMASTAFNLQVATPGGKAMEFVDVTESNARWVQDFRLKAYASPAKLESIDGARYHALLIPSCPGALTDLASSGSLARILQHFHSESKPICAVGHGVAALCCATNEDRSWVFDSYSLTGPSVCELVRAPGFARLPLVVEDFVKDSGACFSASEPDAVHVVLDRHLVTGQNASSTVPAVQNLLFLCGSRK", "modifications": "[35S]-methionine-labelled"}}, "key": {"[1]": {"target": "T1, His6-Fy-1 (Tbck), subunit of the reconstituted FERRY complex (human) (UniProt Q8TEA7)", "T1 sequence": "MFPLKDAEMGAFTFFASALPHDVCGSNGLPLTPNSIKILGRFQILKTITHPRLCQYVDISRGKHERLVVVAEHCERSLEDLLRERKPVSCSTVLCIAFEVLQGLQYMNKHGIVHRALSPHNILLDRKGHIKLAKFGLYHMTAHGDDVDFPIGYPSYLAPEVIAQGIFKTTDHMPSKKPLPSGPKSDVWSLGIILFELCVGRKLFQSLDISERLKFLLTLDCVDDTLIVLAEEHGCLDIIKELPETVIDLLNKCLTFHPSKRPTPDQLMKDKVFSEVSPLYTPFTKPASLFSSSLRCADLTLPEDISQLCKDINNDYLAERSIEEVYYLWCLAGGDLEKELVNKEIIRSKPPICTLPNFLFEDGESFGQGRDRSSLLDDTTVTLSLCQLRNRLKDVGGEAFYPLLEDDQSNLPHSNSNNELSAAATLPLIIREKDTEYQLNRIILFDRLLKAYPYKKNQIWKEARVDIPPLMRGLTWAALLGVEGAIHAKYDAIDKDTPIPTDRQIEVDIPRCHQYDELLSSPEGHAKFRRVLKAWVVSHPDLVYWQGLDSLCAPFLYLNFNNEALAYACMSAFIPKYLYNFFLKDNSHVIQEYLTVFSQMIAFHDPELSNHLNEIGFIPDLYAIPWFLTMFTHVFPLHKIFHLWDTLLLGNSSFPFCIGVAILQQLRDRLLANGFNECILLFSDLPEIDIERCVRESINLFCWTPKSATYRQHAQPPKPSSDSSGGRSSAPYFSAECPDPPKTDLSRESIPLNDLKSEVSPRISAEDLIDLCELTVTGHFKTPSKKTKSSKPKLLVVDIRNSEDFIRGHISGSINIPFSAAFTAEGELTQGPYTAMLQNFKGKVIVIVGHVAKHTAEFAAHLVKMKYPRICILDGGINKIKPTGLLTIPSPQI", "assay": "mass photometry"}, "[2]": {"target": "T2, GST-Fy-2 (Ppp1r21) (human) (UniProt Q6ZMI0)", "T2 sequence": "B1 chain", "assay": "pull-down"}, "GST-Rab5 (human)": {"target": "GST-Rab5 (human) (UniProt P20339)", "assay": "pull-down"}}, "note": "These are yes or no findings as the source states them, for the method shown. For some assays here: Binding seen in cells or lysates may run through a third protein. Some entries that bind do so weakly or less than the wild type. For some assays here: Where a sequence is shown, tags or fusion partners need not be part of it.", "data": [{"binder": "B1", "values": [{"measurement": "binding", "setting": "[1]", "result": "binds"}]}, {"binder": "B2", "values": [{"measurement": "binding", "setting": "[1]", "result": "binds"}, {"measurement": "binding", "setting": "[2]", "result": "binds"}]}, {"binder": "B3", "values": [{"measurement": "binding", "setting": "GST-Rab5 (human)", "result": "binds"}]}, {"binder": "B4", "values": [{"measurement": "binding", "setting": "[2]", "result": "binds"}]}, {"binder": "B5", "values": [{"measurement": "binding", "setting": "GST-Rab5 (human)", "result": "no binding"}]}, {"binder": "B6", "values": [{"measurement": "binding", "setting": "GST-Rab5 (human)", "result": "no binding"}]}, {"binder": "B7", "values": [{"measurement": "binding", "setting": "GST-Rab5 (human)", "result": "no binding"}]}]}
